# Target: Cathepsin B (Rattus norvegicus, UniProt P00787)
# Amino acid sequences for entries named in this document (tags omitted). Residues count along the entry.
# UniProt P00787, 80-339: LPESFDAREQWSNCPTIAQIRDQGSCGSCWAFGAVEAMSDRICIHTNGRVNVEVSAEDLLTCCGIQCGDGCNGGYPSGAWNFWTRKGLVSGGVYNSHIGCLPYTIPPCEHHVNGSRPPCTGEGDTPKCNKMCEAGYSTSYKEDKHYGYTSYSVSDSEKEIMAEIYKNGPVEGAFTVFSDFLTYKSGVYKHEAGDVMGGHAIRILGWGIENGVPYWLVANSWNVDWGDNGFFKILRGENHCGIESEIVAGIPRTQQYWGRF
# Assay: In vitro assay of inhibition of Cathepsin B (N-CBZ-Phe-Arg-AMC substrate)
# Type: biochemical
# Method: After 10 min of incubation at room temperature a 20 μl of 5 mM substrate (N-CBZ-Phe-Arg-AMC, dissolved in DMSO) was added to initiate reaction. Reading is followed up for 10 min at the Fluoroscan reader (excitation at 380 nm, emission at 460 nm).
compound,measurement,value
"CC(=O)O[C@@H]1NC(=O)[C@H]1NC(=O)[C@H](CC(C)C)NC(=O)OCc1ccccc1 [Example 8, (3S,4S)-3-(N-benzyloxycarbonyl-L-leucyl)-amino-4-acetoxy-azetidin-2-one]",IC50,1.46 µM
